Assay results as given in paper doi:10.1101/2020.09.06.284745.
These are yes or no findings as the source states them, for the method shown. Binding can be weak; no strength is given.

Columns and labels:
Experiment in all cases: two-hybrid
[1] = biological target: SnRK1α1 catalytic domain (CD) (Arabidopsis thaliana)
[2] = biological target: SnRK1α1 regulatory domain (RD) (Arabidopsis thaliana)
[3] = biological target: RAPTOR1B WD40 repeats (C-terminus) (Arabidopsis thaliana)
[4] = biological target: RAPTOR1B Raptor N-terminal CASPase-like (RNC) domain (Arabidopsis thaliana)

Measured: binding

B1: FCS-Like Zinc Finger 8 (FLZ8) (protein, UniProt Q8L471 1-267)
chain: MLKKRSRSKQALMAETNQSQNQKQSKTTPFPRLFTAFSSFKSFTENDAVASPTSILDTKPFSVLKNPFGSDNPKTQEPETRLKLEPKRIGLAIVDSLIQDETPEPGPRSGTILFGSQLRIRVPDSPISSSDFGIKTRNSQPETKKPGSESGLGSPRIISGYFPASDMELSEDYTCVTCHGPNPRTIHIFDNCIVESQPGVVFFRSSDPVNESDSDYSPPDSFLSCCCNCKKSLGPRDDIFMYRGDRAFCSSECRSIEMMMSEENDTK
binds: all assays above
